The values that follow come from PMC7819943, “Rice protein-binding microarrays: a tool to detect cis-acting elements near promoter regions in rice”.

Protein sequences, listed by entry. Tags and fused reporters are not part of them.
UniProt Q0JBA9, entry or part of it: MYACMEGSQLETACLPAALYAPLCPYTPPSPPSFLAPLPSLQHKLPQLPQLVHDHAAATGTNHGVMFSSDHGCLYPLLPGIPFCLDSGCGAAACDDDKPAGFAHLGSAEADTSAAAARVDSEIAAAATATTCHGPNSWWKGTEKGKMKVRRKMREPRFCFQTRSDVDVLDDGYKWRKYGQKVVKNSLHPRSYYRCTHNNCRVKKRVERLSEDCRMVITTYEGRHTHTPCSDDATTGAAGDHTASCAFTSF

The list shows a part of the results.

The target in this assay is OsWRKY34 (Oryza sativa, UniProt Q0JBA9 1-250). The experiment in a line: protein-binding microarray (RPBM); PBS, 2% BSA, 51.3 ng/ul salmon testes DNA, 50 uM zinc acetate, 200 nM TF, 25 C, 1 h; high values mean tight binding. To be noted: protein: recombinant; tags: N-terminal polyhistidine and DsRed monomer fusion (pET32a); label: CyDye5-dUTP incorporated in the synthesized complementary strand; 3' TTTTT single-stranded linker to array surface; dsDNA, one strand shown. The method, boiled down:
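The binding signal for each feature is its fluorescence intensity in arbitrary units. An Axon 4000B scanner was used to read a custom Agilent array that had been made double-stranded with Cy5-dUTP primer extension, blocked with 2% BSA, incubated at 25 °C for 1 h with 200 nM protein in PBS, 2% BSA, salmon testes DNA and 50 µM zinc acetate, and washed. The protein was an N-terminal polyhistidine–DsRed transcription factor fusion from E. coli BL21-CodonPlus, purified on Ni–NTA.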
In the case of “TTTACTCCCTTAATCTCGTTGCAAAATTCAAGCAGCTGTCCGGAGTCACCTAGTGCAG”, the binding signal is 8230 fluorescence intensity (a.u.).

Turning to “TATGTCGCCGCCCTACGTCAGCGAAGAGTGGGGTGGGTCCCGGAGTCACCTAGTGCAG”, the binding signal is 9150 fluorescence intensity (a.u.).

For the sequence “CACACACTTTCTACTCTCTCTCTCTCTCACTTCCTCTCATCGGAGTCACCTAGTGCAG”, the binding signal was 8300 fluorescence intensity (a.u.).

“ACCGCGCACGCAACCGACTCAGCTCCTATATTTTGTATACCGGAGTCACCTAGTGCAG”: the binding signal is 11400 fluorescence intensity (a.u.).

Turning to “TCAAACGGCCATTCCTGTGTTTTTCCTGCATTTTACAATCCGGAGTCACCTAGTGCAG”, the binding signal was 8750 fluorescence intensity (a.u.).

On to “CGTCCGACGCGGAGTCTTGTGGGCTTTCTGGGTTAGGGACCGGAGTCACCTAGTGCAG”, for which the binding signal was 10500 fluorescence intensity (a.u.).

For “GACGCTTCCGTGGCCATCAGCTTGTACCTGTTTCCTTCATCGGAGTCACCTAGTGCAG”, the binding signal is 14100 fluorescence intensity (a.u.).

For the sequence “ATCCCTTTCTCTGCAACCGCACATCCTGTCTGCTTGCTTGCGGAGTCACCTAGTGCAG”, the binding signal is 10600 fluorescence intensity (a.u.).

With “GACACGGTCGCTTGCCGTGATCGCCATCCCTTGTCTACACCGGAGTCACCTAGTGCAG”, the binding signal is 8610 fluorescence intensity (a.u.).

Turning to “TTTCCAATCAGCATTGTCGTTTTTCTATTAACATCAGTATCGGAGTCACCTAGTGCAG”, the binding signal is 8110 fluorescence intensity (a.u.).

Turning to “GTTTTGGAGCAGAAGCCCGTTTTCTCCGCCATCTTGCCATCGGAGTCACCTAGTGCAG”, the binding signal was 8400 fluorescence intensity (a.u.).

As to “ACAACGCCGCCGCCTCATCCGCTCTGCTTCTGCTCGCATGCGGAGTCACCTAGTGCAG”, the binding signal is 8410 fluorescence intensity (a.u.).

With “CTATTTTTAGTTGTGCTTTGCACTAGATTCATTCCCGTCTCGGAGTCACCTAGTGCAG”, the binding signal is 8500 fluorescence intensity (a.u.).

As for “ATTCCTATCCGTCTCCGTTGACAGTCACCCCAATCATCACCGGAGTCACCTAGTGCAG”, the binding signal was 8310 fluorescence intensity (a.u.).

As for “AGTTAGCATTGTGATGTGGCACATCTAATCTCATCTCTCTCGGAGTCACCTAGTGCAG”, the binding signal was 8360 fluorescence intensity (a.u.).

“GCCCTCGCCTCGCCTCGCCTCGCCGAAACCCTAACCCTAGCGGAGTCACCTAGTGCAG”: the binding signal is 8240 fluorescence intensity (a.u.).

Turning to “ACCGACCCTTCCGACCGGTTCTTCCGGTGCCACGCACTCACGGAGTCACCTAGTGCAG”, the binding signal was 8500 fluorescence intensity (a.u.).

For the sequence “ACACACAAACTTTCAACTTTTCTGTCACATCGTTCTAATTCGGAGTCACCTAGTGCAG”, the binding signal was 11100 fluorescence intensity (a.u.).

Turning to “AACTCGAGGACTTTCCATGGCACCGCGGTCTCCATCGTCTCGGAGTCACCTAGTGCAG”, the binding signal was 10800 fluorescence intensity (a.u.).

“TTTCGTGTCCAACTTTGACTGTCCGTCTTATATAAATTTTCGGAGTCACCTAGTGCAG”: the binding signal was 11500 fluorescence intensity (a.u.).

“GTTCTTGTCAGTTACTCCACTATCTTGCAATTAAGTTGCACGGAGTCACCTAGTGCAG”: the binding signal was 8180 fluorescence intensity (a.u.).

For the sequence “GGGTGGGGCCAGTGAGTCAGTGGGCGGGGCACAATGGGACCGGAGTCACCTAGTGCAG”, the binding signal was 11900 fluorescence intensity (a.u.).

Consider “TATGCTCAATTTGGCCGTTACTGAGGGGCCTTTCTACAAACGGAGTCACCTAGTGCAG”, for which the binding signal is 8650 fluorescence intensity (a.u.).

Take “TCCATATTGGTCATCGTCAGCCGCTCAGGGTCTTCTTCCTCGGAGTCACCTAGTGCAG”: the binding signal is 9320 fluorescence intensity (a.u.).

Turning to “CCACACAACGTTGACTGGGTCATTACATCCTTTTCCGTAGCGGAGTCACCTAGTGCAG”, the binding signal was 8650 fluorescence intensity (a.u.).

“GCCTCTACGTGGCAGGCTTGCAGTAGGCCATTTACCGTCCCGGAGTCACCTAGTGCAG”: the binding signal was 8230 fluorescence intensity (a.u.).

In the case of “CTATCCTCGTCCACCTTTCAGCCCGGCCCATTTATATCCACGGAGTCACCTAGTGCAG”, the binding signal was 9510 fluorescence intensity (a.u.).

For the sequence “CTCTTGGCATTTACCCACCAGACGATCACATCACCCGCTCCGGAGTCACCTAGTGCAG”, the binding signal was 9020 fluorescence intensity (a.u.).

Regarding “CCAGTCAACCCAAGCACCCAGCCGTCTCGCCTCCTATTCTCGGAGTCACCTAGTGCAG”, the binding signal was 10800 fluorescence intensity (a.u.).

In the case of “CTAGGTACTAGTTAGCATGTATTGACTCCCGCTGATTTTTCGGAGTCACCTAGTGCAG”, the binding signal is 10200 fluorescence intensity (a.u.).

“GGTTGTATCATTTGTTTCTTCTATATGCTCAACAGCTCAACGGAGTCACCTAGTGCAG”: the binding signal is 8360 fluorescence intensity (a.u.).

On to “ACATTTGACCGTTCGTCTTATTTGAAAAACAATTATGATTCGGAGTCACCTAGTGCAG”, for which the binding signal was 8890 fluorescence intensity (a.u.).

In the case of “TTAGCCGTCGTAATAGTCATTTTCTTTTTCTTGGTTTTTTCGGAGTCACCTAGTGCAG”, the binding signal was 12400 fluorescence intensity (a.u.).

On to “AACAGACTTGGTAATTTTGCCCCATATTTCGCATACAATACGGAGTCACCTAGTGCAG”, for which the binding signal is 8390 fluorescence intensity (a.u.).

With “TTGTATTCGGGTCGTCAACGTTTCTCTCAAATCATAGTTACGGAGTCACCTAGTGCAG”, the binding signal is 14800 fluorescence intensity (a.u.).

As for “CCAATGCCAATACCAATATGCTTCTAGAACCTGTACAGCTCGGAGTCACCTAGTGCAG”, the binding signal was 8870 fluorescence intensity (a.u.).

For the sequence “CTTTGCGCGTCACCTCGCCTCCACGACCCTCGAGACAAAACGGAGTCACCTAGTGCAG”, the binding signal was 9380 fluorescence intensity (a.u.).

As for “CTACTATTTCTTCATGTTACATAATTCTCCTTGTTTAAGTCGGAGTCACCTAGTGCAG”, the binding signal is 9260 fluorescence intensity (a.u.).

With “CCCCACCCAGATCTCGCCGCCCGCCCGCCCGCCCGCCATGCGGAGTCACCTAGTGCAG”, the binding signal is 8630 fluorescence intensity (a.u.).

On to “ATGGAGGGAGTAGTTATTATTTTGGGATGTAGGAGGTAGTCGGAGTCACCTAGTGCAG”, for which the binding signal was 8700 fluorescence intensity (a.u.).

Take “ACACCTCTCTCTCTCTCTCTCTCTCTCTCTCTCTCTCTCTCGGAGTCACCTAGTGCAG”: the binding signal was 11300 fluorescence intensity (a.u.).

Regarding “AATTTATGCGTGACTTATCTTTTTAATTTTTTTCATAATTCGGAGTCACCTAGTGCAG”, the binding signal is 8110 fluorescence intensity (a.u.).
